{"source": "paper PMC4346627", "key": {"Roquin WT 1-484": {"target": "T1, Roquin WT 1-484 (UniProt Q4VGL6)", "T1 sequence (looked up)": "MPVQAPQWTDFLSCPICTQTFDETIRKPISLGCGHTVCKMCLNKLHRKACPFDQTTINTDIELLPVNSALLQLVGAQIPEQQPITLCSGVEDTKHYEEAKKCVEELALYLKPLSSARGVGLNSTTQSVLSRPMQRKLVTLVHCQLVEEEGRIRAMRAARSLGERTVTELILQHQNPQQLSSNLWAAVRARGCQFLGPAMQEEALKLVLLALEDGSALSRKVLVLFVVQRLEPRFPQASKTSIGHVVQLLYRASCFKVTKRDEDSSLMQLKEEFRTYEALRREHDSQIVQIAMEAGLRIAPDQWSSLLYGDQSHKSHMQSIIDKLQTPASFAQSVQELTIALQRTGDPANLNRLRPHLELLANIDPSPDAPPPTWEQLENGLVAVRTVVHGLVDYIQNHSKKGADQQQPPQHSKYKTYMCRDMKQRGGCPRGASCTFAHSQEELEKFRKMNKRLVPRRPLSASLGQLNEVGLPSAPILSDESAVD", "test": "SPR", "conditions": "equilibrium 1:1 fit, immobilized RNA; SPR (Biacore T100, SA chip): 10 mM Tris-HCl pH 7.4, 150 mM NaCl, 1 mM TCEP, 0.05% surfactant P-20, 20 C, 50 ul/min; recombinant protein; residues 1-484; protein details: GST removed with PreScission; label: 5'-biotin"}, "Roquin M199R 1-484 (san)": {"target": "T2, Roquin M199R 1-484 (san) (UniProt Q4VGL6)", "T2 sequence (looked up)": "T1 sequence (looked up) with M199R", "test": "SPR", "conditions": "equilibrium 1:1 fit, immobilized RNA; SPR (Biacore T100, SA chip): 10 mM Tris-HCl pH 7.4, 150 mM NaCl, 1 mM TCEP, 0.05% surfactant P-20, 20 C, 50 ul/min; recombinant protein; residues 1-484; protein details: GST removed with PreScission; label: 5'-biotin"}}, "note": "Numbering of substitutions follows the chain as printed. For at least one entry, the source does not settle the construct or the ends of the probe. Tags and fusion partners may be left off the protein sequences shown."}
{"sequence": "CUGAGAACUGAAUUCCAUGGGUUAUAUCAAUGUCA", "values": [{"measurement": "Kd", "setting": "Roquin WT 1-484", "value": 370, "unit": "nM"}, {"measurement": "Kd", "setting": "Roquin M199R 1-484 (san)", "value": 110, "unit": "nM"}]}
